doi:10.1101/2023.02.18.529070 (bioRxiv, 2023)
No constants are given. Whether binding was seen depends on the method and setting. Binding seen in cells or lysates may run through a third protein. Some results given as binding are weak or reduced against the parent protein; the word gives no strength.

By UniProt entry, the sequences of proteins in these tests, tags left out. Residues count along the entry.
UniProt P21860, residues 20-643: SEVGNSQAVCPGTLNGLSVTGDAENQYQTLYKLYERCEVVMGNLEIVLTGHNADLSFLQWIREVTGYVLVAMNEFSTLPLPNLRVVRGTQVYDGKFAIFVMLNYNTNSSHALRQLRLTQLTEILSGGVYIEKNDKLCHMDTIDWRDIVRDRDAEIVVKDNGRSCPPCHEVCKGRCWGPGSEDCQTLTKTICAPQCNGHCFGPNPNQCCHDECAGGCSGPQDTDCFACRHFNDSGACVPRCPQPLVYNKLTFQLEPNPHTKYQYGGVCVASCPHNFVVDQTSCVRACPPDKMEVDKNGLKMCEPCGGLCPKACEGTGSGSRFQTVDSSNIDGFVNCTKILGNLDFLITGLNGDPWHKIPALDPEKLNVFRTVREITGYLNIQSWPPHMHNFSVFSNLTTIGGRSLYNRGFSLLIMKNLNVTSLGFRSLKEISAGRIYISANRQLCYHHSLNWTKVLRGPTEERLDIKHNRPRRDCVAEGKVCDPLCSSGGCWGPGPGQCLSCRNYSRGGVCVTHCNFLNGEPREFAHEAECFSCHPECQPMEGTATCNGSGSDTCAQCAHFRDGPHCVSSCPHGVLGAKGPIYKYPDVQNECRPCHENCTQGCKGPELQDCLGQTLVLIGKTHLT

Target: recombinant human HER3 extracellular domain (human) (UniProt P21860)
Experiment: pull-down

B1: recombinant human LRG1 (leucine-rich alpha-2-glycoprotein 1) (ligand, UniProt P02750 36-347, looked up)
chain: VTLSPKDCQVFRSDHGSSISCQPPAEIPGYLPADTVHLAVEFFNLTHLPANLLQGASKLQELHLSSNGLESLSPEFLRPVPQLRVLDLTRNALTGLPPGLFQASATLDTLVLKENQLEVLEVSWLHGLKALGHLDLSGNRLRKLPPGLLANFTLLRTLDLGENQLETLPPDLLRGPLQLERLHLEGNKLQVLGKDLLLPQPDLRYLFLNGNKLARVAAGAFQGLRQLDMLDLSNNSLASVPEGLWASLGQPNWDMRDGFDISGNPWICDQNLSDLYRWLQAQKDKMFSQNDTRCAGPEAVKGQTLLAVAKSQ
In the case of B1, the binding is reported as “binds”.
